Reference: PubChem BioAssay AID1259405 (NCATS, 2018)

Screen: 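Mouse-designed siRNAs used to find CHO productivity engineering targets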 (primary screen)
Cell system: Chinese hamster CHO-K1 ovary cells with stable secreted eGFP expression
Reagent: single siRNA against mouse genes, 0.8 pmol siRNA per well (2 µl of 400 nM stock)
Duration: 3 days
Detection: 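Per-well intracellular GFP measured by laser scanning cytometry, plus viability from ATP luminescence, each relative to plate median of non-targeting control wells, in %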
Reading the numbers: GFP, % of control: higher = more GFP per well, higher productivity; viability (ATP), % of control: higher = more viable cells (more ATP)
Active means: 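a knock-down is called active if GFP reaches 120% or more of non-targeting control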
The deposit covers about 50,000 reagents; below is an unselected part. About 4,000 of them (8%) count as active. 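Mouse siRNA library applied to hamster cells; one well for each siRNA.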 Unmarked entries are inactive. Reagents against one gene are numbered here. Reagent sequences are not shown.

gene	reagent no.	GFP, % of control	viability (ATP), % of control
Pank3 (GeneID 211347)	1	95.5	81
Asb6 (GeneID 72323)	1	133 (active)	92
Asb6 (GeneID 72323)	2	88.8	68.8
Asb6 (GeneID 72323)	3	75.7	91.9
Donson (GeneID 60364)	1	49	57.4
Donson (GeneID 60364)	2	117	82.2
Cel (GeneID 12613)	1	48	35.5
Cel (GeneID 12613)	2	75.3	70.3
Cel (GeneID 12613)	3	72.7	53.7
Paip2b (GeneID 232164)	1	54.9	79.6
Paip2b (GeneID 232164)	2	44.4	83.9
Paip2b (GeneID 232164)	3	63.6	102
Sdad1 (GeneID 231452)	1	97.5	84.3
Sdad1 (GeneID 231452)	2	55.7	60.1
Sdad1 (GeneID 231452)	3	40	65.2
5930403N24Rik (GeneID 100040846)	1	139 (active)	63.7
5930403N24Rik (GeneID 100040846)	2	72.4	82.1
5930403N24Rik (GeneID 100040846)	3	78.3	88.8
Fcamr (GeneID 64435)	1	69.1	63.3
Fcamr (GeneID 64435)	2	68.3	56.6
Fcamr (GeneID 64435)	3	75.6	64.2
Eif1ax (GeneID 66235)	1	81.4	89.2
Eif1ax (GeneID 66235)	2	45.5	55
Eif1ax (GeneID 66235)	3	79	77.9
Cx3cr1 (GeneID 13051)	1	117	94.7
Cx3cr1 (GeneID 13051)	2	74.4	60.1
Cx3cr1 (GeneID 13051)	3	94.2	71.1
Nat8 (GeneID 68396)	1	80.7	88.9
Nat8 (GeneID 68396)	2	104	53.2
Gm9871 (GeneID 207157)	1	77.8	96.5
Gm9871 (GeneID 207157)	2	59.3	77.5
Gm9871 (GeneID 207157)	3	78.7	77.8
Mogs (GeneID 57377)	1	92.9	90.7
Mogs (GeneID 57377)	2	119	84.7
Mogs (GeneID 57377)	3	80.5	104
Bcas1 (GeneID 76960)	1	76.3	70
Bcas1 (GeneID 76960)	2	99.3	118
Bcas1 (GeneID 76960)	3	87.3	79.9
Sgpp1 (GeneID 81535)	1	77.9	46.3
Sgpp1 (GeneID 81535)	2	59.7	32
Sgpp1 (GeneID 81535)	3	112	67.6

The list goes on, starting with the last 11 of the part before.
gene	reagent no.	GFP, % of control	viability (ATP), % of control
Gm9871 (GeneID 207157)	2	59.3	77.5
Gm9871 (GeneID 207157)	3	78.7	77.8
Mogs (GeneID 57377)	1	92.9	90.7
Mogs (GeneID 57377)	2	119	84.7
Mogs (GeneID 57377)	3	80.5	104
Bcas1 (GeneID 76960)	1	76.3	70
Bcas1 (GeneID 76960)	2	99.3	118
Bcas1 (GeneID 76960)	3	87.3	79.9
Sgpp1 (GeneID 81535)	1	77.9	46.3
Sgpp1 (GeneID 81535)	2	59.7	32
Sgpp1 (GeneID 81535)	3	112	67.6
Ubr3 (GeneID 68795)	1	79	40.5
Ubr3 (GeneID 68795)	2	73	64.5
Ubr3 (GeneID 68795)	3	55.3	76.7
Htr1f (GeneID 15557)	1	70.1	58.5
Htr1f (GeneID 15557)	2	59	87.9
Htr1f (GeneID 15557)	3	59.4	67.7
Rnf181 (GeneID 66510)	1	75.3	79.6
Rnf181 (GeneID 66510)	2	60.7	65.6
Rnf181 (GeneID 66510)	3	147 (active)	81.7
Ankrd34b (GeneID 218440)	1	41.6	26.5
Ankrd34b (GeneID 218440)	2	90.1	104
Ankrd34b (GeneID 218440)	3	90.5	110
Trap1 (GeneID 68015)	1	103	113
Trap1 (GeneID 68015)	2	83.9	79.4
Msra (GeneID 110265)	1	53.2	47.8
Msra (GeneID 110265)	2	59.3	86.6
Msra (GeneID 110265)	3	37.9	51.7
Tex13a (GeneID 67944)	1	90.6	30.4
Tex13a (GeneID 67944)	2	153 (active)	107
Tex13a (GeneID 67944)	3	84	85.1
Sun1 (GeneID 77053)	1	40.3	37.3
Sun1 (GeneID 77053)	2	75.1	28.6
Sun1 (GeneID 77053)	3	67.3	68.9
Lpo (GeneID 76113)	1	67	69.4
Lpo (GeneID 76113)	2	109	60.1
Lpo (GeneID 76113)	3	102	55.9
Or6c2 (GeneID 258932)	1	92.1	81.7
Or6c2 (GeneID 258932)	2	25.1	38.1
Or6c2 (GeneID 258932)	3	118	36.8
Mageh1 (GeneID 75625)	1	64.4	55.7
Mageh1 (GeneID 75625)	2	97.4	82.4
Mageh1 (GeneID 75625)	3	76.2	61.2
Wwtr1 (GeneID 97064)	1	149 (active)	95
Wwtr1 (GeneID 97064)	2	108	86.3
Wwtr1 (GeneID 97064)	3	137 (active)	86.3
Klhdc8a (GeneID 213417)	1	72.9	53.8
Klhdc8a (GeneID 213417)	2	27.6	30.9
Klhdc8a (GeneID 213417)	3	110	93.4
Cdrt4 (GeneID 66338)	1	69.2	67.8
Cdrt4 (GeneID 66338)	2	74	86.2
Cdrt4 (GeneID 66338)	3	40.1	55.4
Pla2r1 (GeneID 18779)	1	70.9	61.9
Pla2r1 (GeneID 18779)	2	77.2	50.1
Pla2r1 (GeneID 18779)	3	81.9	64.1
